Assay results reported in publication PMC3307773.

Protein sequences, listed by entry. Tags and fused reporters are not part of them.
UniProt Q12824: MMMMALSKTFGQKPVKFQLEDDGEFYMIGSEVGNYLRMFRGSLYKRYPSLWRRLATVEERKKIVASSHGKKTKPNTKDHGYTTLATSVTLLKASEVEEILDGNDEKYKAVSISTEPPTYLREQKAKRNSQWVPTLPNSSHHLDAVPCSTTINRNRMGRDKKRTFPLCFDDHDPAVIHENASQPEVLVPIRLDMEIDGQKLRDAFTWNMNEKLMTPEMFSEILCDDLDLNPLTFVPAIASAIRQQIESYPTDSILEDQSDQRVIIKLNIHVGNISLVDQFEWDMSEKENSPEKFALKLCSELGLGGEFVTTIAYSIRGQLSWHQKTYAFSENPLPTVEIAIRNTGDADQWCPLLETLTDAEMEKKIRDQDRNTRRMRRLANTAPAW
UniProt Q14980: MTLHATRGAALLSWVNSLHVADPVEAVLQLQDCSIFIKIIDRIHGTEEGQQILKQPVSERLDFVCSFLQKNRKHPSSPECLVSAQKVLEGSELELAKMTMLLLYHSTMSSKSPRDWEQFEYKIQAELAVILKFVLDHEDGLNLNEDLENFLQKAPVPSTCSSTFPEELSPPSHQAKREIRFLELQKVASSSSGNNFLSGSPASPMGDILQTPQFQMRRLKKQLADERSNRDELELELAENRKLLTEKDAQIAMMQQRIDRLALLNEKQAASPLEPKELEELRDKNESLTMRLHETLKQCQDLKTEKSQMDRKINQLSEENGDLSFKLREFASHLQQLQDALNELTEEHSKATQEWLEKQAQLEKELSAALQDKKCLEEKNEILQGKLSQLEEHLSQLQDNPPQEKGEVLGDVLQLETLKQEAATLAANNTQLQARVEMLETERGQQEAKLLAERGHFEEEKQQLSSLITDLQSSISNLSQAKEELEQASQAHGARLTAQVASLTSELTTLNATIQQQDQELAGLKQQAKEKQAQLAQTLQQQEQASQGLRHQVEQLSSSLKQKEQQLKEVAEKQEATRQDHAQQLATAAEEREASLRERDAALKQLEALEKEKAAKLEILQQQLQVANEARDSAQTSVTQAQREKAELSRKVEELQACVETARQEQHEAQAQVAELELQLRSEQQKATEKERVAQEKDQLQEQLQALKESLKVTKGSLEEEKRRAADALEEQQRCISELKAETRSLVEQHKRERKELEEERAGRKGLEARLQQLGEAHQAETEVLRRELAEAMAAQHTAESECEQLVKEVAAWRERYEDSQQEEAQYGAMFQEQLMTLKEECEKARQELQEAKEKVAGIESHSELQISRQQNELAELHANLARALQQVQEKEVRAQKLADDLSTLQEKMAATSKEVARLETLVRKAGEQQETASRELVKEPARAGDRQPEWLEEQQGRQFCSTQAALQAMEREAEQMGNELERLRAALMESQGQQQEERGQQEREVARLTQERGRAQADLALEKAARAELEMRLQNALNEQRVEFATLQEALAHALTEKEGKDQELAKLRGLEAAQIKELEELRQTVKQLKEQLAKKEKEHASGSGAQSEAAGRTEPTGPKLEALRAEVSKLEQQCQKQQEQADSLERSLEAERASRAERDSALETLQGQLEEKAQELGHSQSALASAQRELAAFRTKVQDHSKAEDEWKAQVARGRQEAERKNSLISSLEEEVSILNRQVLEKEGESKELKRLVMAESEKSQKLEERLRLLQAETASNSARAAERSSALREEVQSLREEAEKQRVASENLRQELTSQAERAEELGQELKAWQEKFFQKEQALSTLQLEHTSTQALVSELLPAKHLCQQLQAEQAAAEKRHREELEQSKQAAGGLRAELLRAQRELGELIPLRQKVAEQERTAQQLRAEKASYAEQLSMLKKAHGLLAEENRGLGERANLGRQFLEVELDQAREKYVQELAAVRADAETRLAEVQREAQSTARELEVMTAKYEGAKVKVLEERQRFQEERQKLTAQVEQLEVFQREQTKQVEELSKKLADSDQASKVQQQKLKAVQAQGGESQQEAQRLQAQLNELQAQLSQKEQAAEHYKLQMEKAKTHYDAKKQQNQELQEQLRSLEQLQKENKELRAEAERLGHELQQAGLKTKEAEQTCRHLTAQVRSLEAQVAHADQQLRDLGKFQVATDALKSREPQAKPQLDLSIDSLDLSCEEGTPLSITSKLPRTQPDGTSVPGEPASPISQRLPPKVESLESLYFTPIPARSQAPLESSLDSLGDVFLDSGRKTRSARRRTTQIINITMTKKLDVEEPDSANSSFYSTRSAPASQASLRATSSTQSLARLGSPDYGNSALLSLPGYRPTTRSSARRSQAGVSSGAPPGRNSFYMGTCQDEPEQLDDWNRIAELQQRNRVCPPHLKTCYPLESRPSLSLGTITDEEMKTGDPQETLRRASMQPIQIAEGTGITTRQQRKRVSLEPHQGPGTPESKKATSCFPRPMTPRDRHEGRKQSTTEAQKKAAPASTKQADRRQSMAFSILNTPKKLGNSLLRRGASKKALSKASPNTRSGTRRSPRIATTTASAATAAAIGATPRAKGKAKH
UniProt Q9UQ35: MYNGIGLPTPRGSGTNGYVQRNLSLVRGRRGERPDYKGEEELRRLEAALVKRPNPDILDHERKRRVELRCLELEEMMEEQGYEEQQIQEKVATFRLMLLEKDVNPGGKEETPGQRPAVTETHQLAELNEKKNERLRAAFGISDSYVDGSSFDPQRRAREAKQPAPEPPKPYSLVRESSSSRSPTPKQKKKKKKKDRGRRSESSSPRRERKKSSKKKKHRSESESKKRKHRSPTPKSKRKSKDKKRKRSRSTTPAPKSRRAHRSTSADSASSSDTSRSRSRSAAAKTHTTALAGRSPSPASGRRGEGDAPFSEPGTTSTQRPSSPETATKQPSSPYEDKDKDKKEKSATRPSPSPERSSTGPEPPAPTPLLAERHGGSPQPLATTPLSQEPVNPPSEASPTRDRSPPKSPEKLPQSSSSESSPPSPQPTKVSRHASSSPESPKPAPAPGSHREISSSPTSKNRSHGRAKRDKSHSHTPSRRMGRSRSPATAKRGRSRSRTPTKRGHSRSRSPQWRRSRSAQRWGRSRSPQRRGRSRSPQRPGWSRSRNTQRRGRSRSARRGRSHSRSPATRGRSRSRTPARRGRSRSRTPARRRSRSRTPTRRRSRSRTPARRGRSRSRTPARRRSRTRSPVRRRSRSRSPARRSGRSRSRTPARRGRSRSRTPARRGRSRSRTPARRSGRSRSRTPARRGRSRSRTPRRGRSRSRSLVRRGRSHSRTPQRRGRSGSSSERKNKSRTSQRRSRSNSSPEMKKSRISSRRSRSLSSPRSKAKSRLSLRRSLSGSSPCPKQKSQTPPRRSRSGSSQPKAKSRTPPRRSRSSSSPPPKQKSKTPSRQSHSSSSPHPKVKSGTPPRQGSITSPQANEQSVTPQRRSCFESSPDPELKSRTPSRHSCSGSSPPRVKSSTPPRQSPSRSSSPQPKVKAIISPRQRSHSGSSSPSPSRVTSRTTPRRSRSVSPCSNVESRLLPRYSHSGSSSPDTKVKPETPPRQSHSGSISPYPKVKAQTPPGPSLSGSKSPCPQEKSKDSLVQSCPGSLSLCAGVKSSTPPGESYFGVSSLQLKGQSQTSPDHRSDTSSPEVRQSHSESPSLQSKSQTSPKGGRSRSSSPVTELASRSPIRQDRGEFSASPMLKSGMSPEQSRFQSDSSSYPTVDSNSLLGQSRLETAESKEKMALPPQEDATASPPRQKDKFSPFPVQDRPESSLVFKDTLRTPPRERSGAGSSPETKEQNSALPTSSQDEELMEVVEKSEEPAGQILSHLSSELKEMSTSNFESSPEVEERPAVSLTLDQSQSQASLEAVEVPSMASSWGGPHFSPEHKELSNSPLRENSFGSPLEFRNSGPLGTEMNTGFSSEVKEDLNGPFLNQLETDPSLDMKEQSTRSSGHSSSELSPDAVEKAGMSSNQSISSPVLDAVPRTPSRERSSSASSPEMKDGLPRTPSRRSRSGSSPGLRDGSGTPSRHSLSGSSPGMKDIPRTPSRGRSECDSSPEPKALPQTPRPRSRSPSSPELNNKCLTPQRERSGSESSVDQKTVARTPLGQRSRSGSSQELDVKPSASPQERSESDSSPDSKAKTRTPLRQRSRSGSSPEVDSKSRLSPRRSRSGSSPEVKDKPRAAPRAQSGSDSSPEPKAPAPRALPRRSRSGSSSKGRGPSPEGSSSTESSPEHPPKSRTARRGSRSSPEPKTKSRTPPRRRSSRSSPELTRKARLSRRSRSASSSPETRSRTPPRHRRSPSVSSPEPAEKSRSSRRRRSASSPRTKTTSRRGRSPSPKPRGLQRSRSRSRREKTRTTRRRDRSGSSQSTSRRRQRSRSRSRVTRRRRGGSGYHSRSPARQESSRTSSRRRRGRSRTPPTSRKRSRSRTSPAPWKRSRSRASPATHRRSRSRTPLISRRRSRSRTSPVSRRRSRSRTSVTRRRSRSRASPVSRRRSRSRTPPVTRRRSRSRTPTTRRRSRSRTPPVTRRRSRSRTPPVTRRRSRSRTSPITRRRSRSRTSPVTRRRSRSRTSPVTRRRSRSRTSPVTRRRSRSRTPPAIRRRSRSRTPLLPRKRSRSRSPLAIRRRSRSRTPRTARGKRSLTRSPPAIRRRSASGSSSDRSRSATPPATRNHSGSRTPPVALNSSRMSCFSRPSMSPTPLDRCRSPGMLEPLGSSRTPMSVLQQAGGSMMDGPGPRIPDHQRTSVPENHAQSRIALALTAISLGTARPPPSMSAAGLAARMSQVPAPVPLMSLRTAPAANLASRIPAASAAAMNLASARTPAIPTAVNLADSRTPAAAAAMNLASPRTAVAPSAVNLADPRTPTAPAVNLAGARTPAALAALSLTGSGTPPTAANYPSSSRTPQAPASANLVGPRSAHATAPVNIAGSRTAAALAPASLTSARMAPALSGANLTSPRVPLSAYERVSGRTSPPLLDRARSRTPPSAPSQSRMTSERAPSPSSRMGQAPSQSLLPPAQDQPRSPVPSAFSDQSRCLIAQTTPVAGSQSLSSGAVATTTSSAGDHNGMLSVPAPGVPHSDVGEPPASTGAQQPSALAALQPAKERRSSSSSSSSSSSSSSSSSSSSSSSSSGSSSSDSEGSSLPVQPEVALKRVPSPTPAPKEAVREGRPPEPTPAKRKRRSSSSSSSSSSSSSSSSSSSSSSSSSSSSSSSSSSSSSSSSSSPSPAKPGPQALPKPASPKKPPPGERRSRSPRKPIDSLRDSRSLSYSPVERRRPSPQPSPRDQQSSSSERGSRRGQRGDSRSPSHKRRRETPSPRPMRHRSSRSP
UniProt Q4VC05: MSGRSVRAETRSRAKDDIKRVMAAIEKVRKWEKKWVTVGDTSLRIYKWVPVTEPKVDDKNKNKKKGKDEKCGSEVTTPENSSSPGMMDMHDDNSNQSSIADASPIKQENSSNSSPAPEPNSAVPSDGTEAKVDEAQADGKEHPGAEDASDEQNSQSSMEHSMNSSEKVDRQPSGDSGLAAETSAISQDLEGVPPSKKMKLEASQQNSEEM
UniProt Q15532: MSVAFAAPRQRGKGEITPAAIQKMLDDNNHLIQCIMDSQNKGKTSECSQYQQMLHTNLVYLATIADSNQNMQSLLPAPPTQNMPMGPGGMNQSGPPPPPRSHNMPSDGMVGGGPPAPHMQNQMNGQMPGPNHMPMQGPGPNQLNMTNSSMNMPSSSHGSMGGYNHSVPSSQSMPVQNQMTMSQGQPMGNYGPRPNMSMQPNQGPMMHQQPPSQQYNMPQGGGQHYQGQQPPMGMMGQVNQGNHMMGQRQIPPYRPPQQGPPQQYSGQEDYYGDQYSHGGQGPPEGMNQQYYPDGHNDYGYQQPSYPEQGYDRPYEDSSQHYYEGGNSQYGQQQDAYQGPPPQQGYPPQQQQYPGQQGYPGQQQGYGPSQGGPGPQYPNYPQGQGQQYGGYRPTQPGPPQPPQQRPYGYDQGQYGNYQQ
UniProt Q6STE5: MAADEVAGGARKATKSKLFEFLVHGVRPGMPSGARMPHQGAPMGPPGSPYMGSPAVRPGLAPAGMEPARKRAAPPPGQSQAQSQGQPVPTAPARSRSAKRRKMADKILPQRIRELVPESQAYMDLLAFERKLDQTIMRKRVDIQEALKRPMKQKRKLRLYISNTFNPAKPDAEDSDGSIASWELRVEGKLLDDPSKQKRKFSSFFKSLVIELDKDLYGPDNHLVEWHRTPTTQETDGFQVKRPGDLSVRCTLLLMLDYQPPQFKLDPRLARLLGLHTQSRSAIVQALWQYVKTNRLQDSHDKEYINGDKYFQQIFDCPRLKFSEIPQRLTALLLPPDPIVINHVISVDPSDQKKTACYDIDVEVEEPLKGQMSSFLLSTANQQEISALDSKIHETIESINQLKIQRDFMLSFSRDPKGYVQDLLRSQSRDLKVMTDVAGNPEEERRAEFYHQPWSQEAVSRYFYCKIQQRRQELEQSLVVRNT

Legend:
Experiment in all cases: affinity purification with mass spectrometry; tandem affinity purification: whole cell extracts of stable Hek293 clones on IgG sepharose, TEV cleavage, pre-clearing with protein A beads, immunoprecipitation with anti-MYC (PHF10: anti-TY1), peptide elution, SDS-PAGE, silver stain, in-gel trypsin digest, nano-LC FT mass spectrometry
BCL7C^TAP (human) = BCL7C^TAP (human) (UniProt Q8WUZ0)
DPF2^TAP (human) = DPF2^TAP (human) (UniProt Q92785)
INI1^TAP (human) = INI1^TAP (human) (UniProt Q12824)

Row | binding (BCL7C^TAP (human)) | binding (DPF2^TAP (human)) | binding (INI1^TAP (human)) | Substance
1 | binds |  |  | BAF45D (from UniProt Q92785 1-391)
2 | binds | binds | binds | BAF60B (from UniProt Q92925 1-531)
3 | no binding | no binding | no binding | NUMA1 (from UniProt Q14980 1-2115)
4 |  |  | binds | BRD7 (from UniProt Q9NPI1 1-651)
5 | binds | binds |  | BRM (from UniProt P51531 1-1590)
6 | no binding | no binding | no binding | SRRM2 (from UniProt Q9UQ35 1-2752)
7 |  | binds |  | BCL7A (from UniProt Q4VC05 1-210)
8 | binds |  | no binding | BRD9 (from UniProt Q9H8M2 1-597)
9 | binds | binds | binds | BAF60A (from UniProt Q96GM5 1-515)
10 | binds | binds | binds | BAF57 (from UniProt Q969G3 1-411)

The remaining lines, values behind:

Row | Substance | binding (BCL7C^TAP (human)) | binding (DPF2^TAP (human)) | binding (INI1^TAP (human))
11 | BAF180 (from UniProt Q86U86 1-1689) | binds weakly | no binding | binds
12 | BRG1 (from UniProt P51532 1-1647) | binds | binds | binds
13 | GLioma Tumor Suppressor Candidate Region gene 1 protein (from UniProt Q9NZM4 1-1560) | binds |  | 
14 | BAF45B (from UniProt Q92782 1-387) | binds |  | 
15 | BAF155 (from UniProt Q92922 1-1105) | binds |  | binds
16 | SS18 (from UniProt Q15532 1-418) |  | binds | 
17 | BAF60C (from UniProt Q6STE5 1-483) | binds | binds | 
18 | BAF45C (from UniProt Q92784 1-378) | binds |  | 
19 | SS18L1 (from UniProt O75177 1-396) | binds | binds | 
20 | BAF170 (from UniProt Q8TAQ2 1-1214) | binds | binds | 
21 | BAF53A (from UniProt O96019 1-429) | binds | binds | 

Results are given in words; binding and its absence hold for the method and conditions named. Binding seen in cells or lysates may run through a third protein. Here binding means that the protein was enriched with, or labelled near, the bait; the list need not be complete. No binding means not detected with the bait.
